Measurements taken from the supplement of paper PMC10849652.
Some of the results follow.

Amino acid sequences for entries named in this document (tags omitted). A change or cut given only in a name is not applied to a line headed by its entry.
UniProt P00966: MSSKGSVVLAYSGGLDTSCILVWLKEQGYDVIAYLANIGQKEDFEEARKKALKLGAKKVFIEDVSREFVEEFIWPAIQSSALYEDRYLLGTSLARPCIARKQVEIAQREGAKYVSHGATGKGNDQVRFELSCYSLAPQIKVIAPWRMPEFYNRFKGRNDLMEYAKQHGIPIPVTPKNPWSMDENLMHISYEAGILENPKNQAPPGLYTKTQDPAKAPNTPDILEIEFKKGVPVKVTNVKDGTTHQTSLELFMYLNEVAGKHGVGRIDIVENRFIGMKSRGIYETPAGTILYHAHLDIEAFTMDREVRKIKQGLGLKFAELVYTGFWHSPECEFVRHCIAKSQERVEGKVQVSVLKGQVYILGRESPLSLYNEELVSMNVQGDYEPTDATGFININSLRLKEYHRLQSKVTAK
UniProt Q13733, whole entry, looked up: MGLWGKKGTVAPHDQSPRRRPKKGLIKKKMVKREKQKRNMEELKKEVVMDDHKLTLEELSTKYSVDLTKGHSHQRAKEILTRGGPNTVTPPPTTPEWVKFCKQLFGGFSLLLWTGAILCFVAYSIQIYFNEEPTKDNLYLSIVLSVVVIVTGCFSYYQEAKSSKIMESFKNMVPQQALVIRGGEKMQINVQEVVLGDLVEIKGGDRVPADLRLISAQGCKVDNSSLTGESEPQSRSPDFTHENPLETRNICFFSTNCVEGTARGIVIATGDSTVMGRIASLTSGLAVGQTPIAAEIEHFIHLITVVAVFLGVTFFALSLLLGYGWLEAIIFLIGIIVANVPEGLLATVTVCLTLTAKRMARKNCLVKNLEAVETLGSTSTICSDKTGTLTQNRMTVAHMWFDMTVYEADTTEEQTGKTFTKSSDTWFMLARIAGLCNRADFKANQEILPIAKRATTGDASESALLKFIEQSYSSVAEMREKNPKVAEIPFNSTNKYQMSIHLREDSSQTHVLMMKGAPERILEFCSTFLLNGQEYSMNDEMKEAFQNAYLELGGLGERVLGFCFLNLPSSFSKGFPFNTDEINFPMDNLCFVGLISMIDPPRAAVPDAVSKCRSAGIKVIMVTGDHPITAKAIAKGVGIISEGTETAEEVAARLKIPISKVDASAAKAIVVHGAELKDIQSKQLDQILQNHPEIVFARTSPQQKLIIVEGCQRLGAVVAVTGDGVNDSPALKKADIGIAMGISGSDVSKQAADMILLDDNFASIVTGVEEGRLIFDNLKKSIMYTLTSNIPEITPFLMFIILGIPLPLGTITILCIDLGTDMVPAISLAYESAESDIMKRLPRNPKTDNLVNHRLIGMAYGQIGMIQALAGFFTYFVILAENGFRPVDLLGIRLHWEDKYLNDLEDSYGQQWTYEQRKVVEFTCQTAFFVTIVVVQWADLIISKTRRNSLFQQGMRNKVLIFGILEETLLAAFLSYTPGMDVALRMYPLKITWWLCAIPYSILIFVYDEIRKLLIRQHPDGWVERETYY
UniProt O43861: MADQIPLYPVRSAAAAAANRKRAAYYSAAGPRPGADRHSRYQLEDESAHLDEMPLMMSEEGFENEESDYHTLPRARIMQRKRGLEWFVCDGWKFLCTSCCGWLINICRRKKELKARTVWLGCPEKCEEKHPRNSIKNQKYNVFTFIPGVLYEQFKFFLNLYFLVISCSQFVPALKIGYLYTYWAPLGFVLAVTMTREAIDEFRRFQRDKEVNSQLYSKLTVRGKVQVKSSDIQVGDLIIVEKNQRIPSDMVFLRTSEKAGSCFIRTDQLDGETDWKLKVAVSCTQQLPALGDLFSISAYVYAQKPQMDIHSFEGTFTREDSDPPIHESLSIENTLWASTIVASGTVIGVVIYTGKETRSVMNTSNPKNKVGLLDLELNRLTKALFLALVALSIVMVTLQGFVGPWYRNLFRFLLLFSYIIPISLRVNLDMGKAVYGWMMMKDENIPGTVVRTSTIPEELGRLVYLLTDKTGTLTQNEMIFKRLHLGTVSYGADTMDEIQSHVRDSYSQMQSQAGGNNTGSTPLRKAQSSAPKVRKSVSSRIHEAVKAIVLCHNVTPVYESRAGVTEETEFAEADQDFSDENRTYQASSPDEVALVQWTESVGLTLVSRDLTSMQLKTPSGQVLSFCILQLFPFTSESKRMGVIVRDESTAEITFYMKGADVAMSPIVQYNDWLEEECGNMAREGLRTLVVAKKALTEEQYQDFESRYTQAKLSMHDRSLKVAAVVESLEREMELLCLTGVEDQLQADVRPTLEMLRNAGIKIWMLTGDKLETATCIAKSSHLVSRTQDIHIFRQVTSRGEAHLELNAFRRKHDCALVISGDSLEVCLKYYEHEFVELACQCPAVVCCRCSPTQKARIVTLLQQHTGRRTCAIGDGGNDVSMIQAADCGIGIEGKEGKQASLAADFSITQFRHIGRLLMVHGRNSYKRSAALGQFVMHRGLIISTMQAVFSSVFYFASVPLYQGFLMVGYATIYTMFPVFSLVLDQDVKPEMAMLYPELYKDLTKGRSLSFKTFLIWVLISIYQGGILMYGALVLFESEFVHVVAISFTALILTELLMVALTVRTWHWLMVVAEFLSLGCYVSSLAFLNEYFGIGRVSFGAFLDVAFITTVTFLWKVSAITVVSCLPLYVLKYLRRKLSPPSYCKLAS
UniProt Q13510, whole entry, looked up: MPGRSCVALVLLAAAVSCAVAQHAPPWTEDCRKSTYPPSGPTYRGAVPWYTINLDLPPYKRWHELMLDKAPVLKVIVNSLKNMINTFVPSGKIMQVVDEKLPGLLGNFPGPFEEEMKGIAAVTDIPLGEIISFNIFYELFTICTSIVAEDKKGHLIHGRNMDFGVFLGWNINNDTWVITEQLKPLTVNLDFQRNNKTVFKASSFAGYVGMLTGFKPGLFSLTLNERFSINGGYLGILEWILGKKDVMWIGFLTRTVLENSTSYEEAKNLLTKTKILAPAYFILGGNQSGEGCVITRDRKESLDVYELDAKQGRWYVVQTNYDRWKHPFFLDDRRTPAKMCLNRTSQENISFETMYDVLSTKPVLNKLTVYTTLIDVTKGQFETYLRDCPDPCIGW
UniProt Q9Y4P1: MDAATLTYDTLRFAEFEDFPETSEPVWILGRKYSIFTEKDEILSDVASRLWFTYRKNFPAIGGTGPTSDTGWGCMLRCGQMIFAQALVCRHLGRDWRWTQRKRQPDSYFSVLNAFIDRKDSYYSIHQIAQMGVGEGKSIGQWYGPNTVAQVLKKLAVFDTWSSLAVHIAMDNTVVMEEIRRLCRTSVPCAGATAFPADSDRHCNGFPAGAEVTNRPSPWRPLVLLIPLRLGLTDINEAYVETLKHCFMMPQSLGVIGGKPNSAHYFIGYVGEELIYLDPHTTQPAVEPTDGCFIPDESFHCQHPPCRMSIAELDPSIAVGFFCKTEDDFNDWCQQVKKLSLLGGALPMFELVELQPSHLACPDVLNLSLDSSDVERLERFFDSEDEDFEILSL
UniProt Q9H2C2: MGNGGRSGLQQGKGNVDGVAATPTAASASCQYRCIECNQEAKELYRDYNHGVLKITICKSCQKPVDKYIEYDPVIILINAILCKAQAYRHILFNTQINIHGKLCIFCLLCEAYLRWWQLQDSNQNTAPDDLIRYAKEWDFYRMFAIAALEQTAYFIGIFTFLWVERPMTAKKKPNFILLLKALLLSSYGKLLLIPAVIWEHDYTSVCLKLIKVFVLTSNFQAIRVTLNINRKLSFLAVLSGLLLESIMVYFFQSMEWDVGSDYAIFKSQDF
UniProt Q9Y294, whole entry, looked up: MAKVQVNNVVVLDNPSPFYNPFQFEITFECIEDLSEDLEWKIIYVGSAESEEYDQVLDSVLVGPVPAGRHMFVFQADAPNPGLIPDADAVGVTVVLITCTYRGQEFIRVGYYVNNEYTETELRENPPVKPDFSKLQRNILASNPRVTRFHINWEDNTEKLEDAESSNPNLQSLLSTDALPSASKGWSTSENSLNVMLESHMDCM
UniProt O95260: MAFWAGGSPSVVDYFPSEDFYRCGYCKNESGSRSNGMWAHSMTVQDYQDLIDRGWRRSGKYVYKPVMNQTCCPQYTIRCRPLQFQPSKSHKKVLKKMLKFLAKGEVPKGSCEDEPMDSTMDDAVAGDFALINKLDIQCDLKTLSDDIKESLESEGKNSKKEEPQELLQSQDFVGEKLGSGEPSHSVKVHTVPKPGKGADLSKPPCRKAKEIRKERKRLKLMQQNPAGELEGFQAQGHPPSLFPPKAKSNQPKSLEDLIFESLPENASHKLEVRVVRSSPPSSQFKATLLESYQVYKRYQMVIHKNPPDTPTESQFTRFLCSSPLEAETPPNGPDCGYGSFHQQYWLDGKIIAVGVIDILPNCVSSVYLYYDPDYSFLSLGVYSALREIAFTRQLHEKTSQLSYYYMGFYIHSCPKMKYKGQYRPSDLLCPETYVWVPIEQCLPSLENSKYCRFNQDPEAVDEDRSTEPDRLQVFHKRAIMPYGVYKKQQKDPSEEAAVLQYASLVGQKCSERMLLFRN
UniProt Q92747, whole entry, looked up: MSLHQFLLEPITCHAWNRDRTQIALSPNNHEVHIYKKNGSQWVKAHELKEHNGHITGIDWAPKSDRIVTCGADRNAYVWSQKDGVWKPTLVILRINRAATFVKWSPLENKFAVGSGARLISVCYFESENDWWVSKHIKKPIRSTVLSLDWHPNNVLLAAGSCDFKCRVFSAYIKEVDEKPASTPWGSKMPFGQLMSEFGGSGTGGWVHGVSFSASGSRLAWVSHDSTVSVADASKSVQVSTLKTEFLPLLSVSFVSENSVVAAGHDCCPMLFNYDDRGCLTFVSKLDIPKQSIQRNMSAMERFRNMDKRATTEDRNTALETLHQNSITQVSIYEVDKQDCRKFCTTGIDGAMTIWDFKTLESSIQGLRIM

Columns and labels:
Assay in all cases: log2 fold change, soluble protein after heating vs DMSO (PISA); higher = thermal stabilisation; K562 cells, 10 uM, 30 min; active = over 0.2 and 3.5 SD of the protein, either way, in both replicates (recomputed)
[1] = compound: C1=CC=C(C=C1)[C@H](COC2=CC3=C(C=C2)NC(=O)N3)NC(=O)C4=CC=CN(C4=O)CC5=CC(=C(C=C5)F)F
Outline: (§1)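 K562 cells at 2×10^6 cells/mL were treated for 30 min with 10 μM compound, and aliquots were heated for 3 min over 48°C-58°C before pooling. Extraction used PBS with 0.5% NP-40 at 4°C, and soluble protein was the supernatant after 21,000xg for 90 min, measured by TMTpro 16plex LC-MS/MS with channel sums equalised. Thermal stability values, relative to control samples and from duplicates, are log2 fold changes.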

[2] = compound: CC1=C(SC2=C1C(=N[C@H](C3=NN=C(N32)C)CC(=O)N)C4=CC=C(C=C4)Cl)C
Outline: as §1

[3] = compound: CC1=C2C(=CC=C1)N=C(N(C2=O)C3=CC=CC=C3C)CN4C=NC5=C(N=CN=C54)N
Outline: as §1

[4] = compound: Cc1sc2c(c1C)C(c1ccc(Cl)cc1)=N[C@@H](CC(=O)OC(C)(C)C)c1nnc(C)n1-2
Outline: as §1

[5] = compound: c1ccc([C@@H]2C[C@H]2NC2CCNCC2)cc1
Outline: as §1

Measured: log2 fold change

ASS1 (UniProt P00966)
inactive: [1] -0.099 | [2] -0.036 | [3] 0.032 | [4] -0.141 | [5] -0.146

ATP1A4 (UniProt Q13733)
inactive: [1] -0.084 | [2] -0.142 | [3] 0.035 | [4] 0.036 | [5] 0.056

ATP9B (UniProt O43861)
inactive: [1] -0.092 | [2] -0.001 | [3] 0.055 | [4] -0.048 | [5] 0.071

ASAH1 isoform 2 (UniProt Q13510)
inactive: [1] 0.023 | [2] 0.019 | [3] -0.1 | [4] -0.014 | [5] 0.01

ATG4B isoform 2 (UniProt Q9Y4P1)
inactive: [1] -0.079 | [2] 0.056 | [3] 0.166 | [4] 0.188 | [5] 0.07

ARV1 (UniProt Q9H2C2)
inactive: [1] -0.007 | [2] 0.041 | [3] 0.06 | [4] 0.005 | [5] 0.032

ASF1A (UniProt Q9Y294)
inactive: [1] -0.012 | [2] 0.001 | [3] 0.069 | [4] -0.011 | [5] 0.04

Taken from above (2 entries):
ATG4B isoform 2 (UniProt Q9Y4P1)
inactive: [1] -0.079 | [2] 0.056 | [3] 0.166 | [4] 0.188 | [5] 0.07

ARV1 (UniProt Q9H2C2)
inactive: [1] -0.007 | [2] 0.041 | [3] 0.06 | [4] 0.005 | [5] 0.032

Continuation:

ATE1 isoform 2 (UniProt O95260)
inactive: [1] 0.026 | [2] 0.111 | [3] 0.01 | [4] 0.044 | [5] -0.064

ARPC1A (UniProt Q92747)
inactive: [1] -0.044 | [2] 0.049 | [3] 0.041 | [4] 0.03 | [5] 0.044
